Publication doi:10.1101/2022.06.14.495942 (bioRxiv, 2022)
Where two headings read alike, the source gives them in different places. No constants are given. Whether binding was seen depends on the method and setting. Some entries that bind do so weakly or less than the wild type. For some assays here: Sequences can lack the tags named with a protein.

What was measured:
[1] = molecular target: T1, 5xmyc-LFY, in vitro-produced Full Length (FL) LFY (Arabidopsis thaliana) (UniProt Q00958); test: native gel or EMSA
T1 sequence: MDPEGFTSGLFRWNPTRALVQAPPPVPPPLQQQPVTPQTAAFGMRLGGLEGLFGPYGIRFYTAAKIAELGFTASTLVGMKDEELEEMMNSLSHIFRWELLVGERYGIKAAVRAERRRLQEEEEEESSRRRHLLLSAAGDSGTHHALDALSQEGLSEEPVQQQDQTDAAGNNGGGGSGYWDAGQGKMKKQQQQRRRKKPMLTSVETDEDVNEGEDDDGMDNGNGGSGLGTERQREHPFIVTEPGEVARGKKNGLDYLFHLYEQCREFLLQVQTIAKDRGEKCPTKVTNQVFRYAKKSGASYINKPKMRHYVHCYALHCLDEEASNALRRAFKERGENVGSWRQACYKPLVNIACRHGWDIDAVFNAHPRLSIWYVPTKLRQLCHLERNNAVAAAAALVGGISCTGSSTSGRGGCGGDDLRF

[2] = molecular target: T1, 5xmyc-LFY, in vitro-produced Full Length (FL) LFY (Arabidopsis thaliana); test: native gel or EMSA; remark: listed apart in the source
[3] = molecular target: T2, LFY-40 (LEAFY lacking the first 40 aa), yeast two-hybrid construct (Arabidopsis thaliana) (UniProt Q00958); test: two-hybrid
T2 sequence: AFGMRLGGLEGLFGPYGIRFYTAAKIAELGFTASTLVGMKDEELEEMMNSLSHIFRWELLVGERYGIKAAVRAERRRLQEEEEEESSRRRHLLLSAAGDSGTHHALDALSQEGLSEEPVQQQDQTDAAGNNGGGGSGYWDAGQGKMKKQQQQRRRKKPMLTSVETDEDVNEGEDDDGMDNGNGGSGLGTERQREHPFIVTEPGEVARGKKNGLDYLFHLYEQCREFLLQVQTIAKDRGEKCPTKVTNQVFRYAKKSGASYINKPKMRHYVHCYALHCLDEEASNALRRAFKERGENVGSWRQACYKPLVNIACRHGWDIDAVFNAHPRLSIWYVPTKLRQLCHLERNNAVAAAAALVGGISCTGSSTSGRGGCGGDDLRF

[4] = molecular target: T3, UFO in the purified ASK1-UFO-LFY-DBD complex (Arabidopsis thaliana) (UniProt Q39090); test: cryo-EM structure
T3 sequence: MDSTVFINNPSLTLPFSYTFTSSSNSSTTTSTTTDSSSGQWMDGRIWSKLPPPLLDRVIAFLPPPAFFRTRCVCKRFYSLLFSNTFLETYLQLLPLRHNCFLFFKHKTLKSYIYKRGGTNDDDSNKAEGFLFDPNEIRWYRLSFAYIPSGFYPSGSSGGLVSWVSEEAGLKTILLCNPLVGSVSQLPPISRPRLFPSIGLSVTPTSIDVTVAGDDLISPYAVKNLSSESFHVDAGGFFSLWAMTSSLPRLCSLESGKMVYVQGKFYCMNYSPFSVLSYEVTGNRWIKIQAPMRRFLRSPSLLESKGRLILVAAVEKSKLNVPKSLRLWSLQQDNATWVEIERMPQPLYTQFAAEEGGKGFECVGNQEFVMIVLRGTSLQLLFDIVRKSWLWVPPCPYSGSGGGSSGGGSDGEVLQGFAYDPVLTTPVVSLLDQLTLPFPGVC

For “ASK1-UFO complex, recombinant (from UniProt Q39255 1-160; Q39090 1-442)”, the binding [1] was “binds” and the binding [2] was “binds”.

In the case of “UFOΔFbox-3xFLAG, recombinant (from UniProt Q39090 91-442) (domain or fragment)”, the binding [1] is reported as “binds”.

B1: UNUSUAL FLORAL ORGANS (UFO), yeast two-hybrid construct of Figures S2F and S5D (protein, UniProt Q39090 1-442)
chain: MDSTVFINNPSLTLPFSYTFTSSSNSSTTTSTTTDSSSGQWMDGRIWSKLPPPLLDRVIAFLPPPAFFRTRCVCKRFYSLLFSNTFLETYLQLLPLRHNCFLFFKHKTLKSYIYKRGGTNDDDSNKAEGFLFDPNEIRWYRLSFAYIPSGFYPSGSSGGLVSWVSEEAGLKTILLCNPLVGSVSQLPPISRPRLFPSIGLSVTPTSIDVTVAGDDLISPYAVKNLSSESFHVDAGGFFSLWAMTSSLPRLCSLESGKMVYVQGKFYCMNYSPFSVLSYEVTGNRWIKIQAPMRRFLRSPSLLESKGRLILVAAVEKSKLNVPKSLRLWSLQQDNATWVEIERMPQPLYTQFAAEEGGKGFECVGNQEFVMIVLRGTSLQLLFDIVRKSWLWVPPCPYSGSGGGSSGGGSDGEVLQGFAYDPVLTTPVVSLLDQLTLPFPGVC
In the case of B1, the binding [3] is reported as “binds”.

B2: ASK1 in the purified ASK1-UFO-LFY-DBD complex (natural protein)
chain: MSAKKIVLKSSDGESFEVEEAVALESQTIAHMVEDDCVDNGVPLPNVTSKILAKVIEYCKRHVEAAASKAEAVEGAATSDDDLKAWDADFMKIDQATLFELILAANYLNIKNLLDLTCQTVADMIKGKTPEEIRTTFNIKNDFTPEEEEEVRRENQWAFE
B2 was tested, and the binding [4] was “binds”.
